Assay results from article PMC8515607 (ACS Omega, 2021).

How the values were obtained:
Type in all cases: cell-based
[1] = tested on: MCF-7; assay: cells; details: Homo sapiens, MCF7, 72 h, read-out: MCF-7 IC50 (nM)
Source text: (§1) The A549 and MCF7 cell lines were purchased from the European Collection of Authenticated Cell Cultures (ECACC, Salisbury, U.K., 86012804 and 86012803). The LoVo cell line was purchased from the American Type Culture Collection (CCL-229, ATCC, Manassas, VA), and LoVo/DX by courtesy of Prof. E. Borowski (Technical University of Gdańsk, Gdańsk, Poland). The BALB/3T3 cell line was purchased from the American Type Culture Collection (CCL-163, ATCC, Manassas, VA). All of the cell lines are maintained in the Institute of Immunology and Experimental Therapy (IIET), Wroclaw, Poland. […]
(§2) After 72 h of incubation with the tested compounds, the cells were fixed in situ by gently adding cold 50% trichloroacetic acid (TCA) (POCh, Poland) and were incubated at room temperature for 1 h. […] Absorbance of each solution was read at Synergy H4 Hybrid Multi-Mode Microplate Reader (BioTek Instruments) at the 540 nm wavelength.
(§3) IC50 values were calculated in Excel sheet using formulas adapted by Mateusz Psurski fromCheburator 0.4, Dmitry Nevozhay software (version 1.2.0 software by Dmitry Nevozhay, 2004–2014, http://www.cheburator.nevozhay.com, freely available) for each experiment.[58] […]

[2] = tested on: LoVo; assay: cells; details: Homo sapiens, 72 h, read-out: LoVo IC50 (nM)
Source text: as §1, §2, §3

[3] = tested on: BALB/3T3; assay: In vitro antiproliferative activity, SRB assay, normal fibroblasts BALB/3T3; details: Mus musculus, normal murine embryonic fibroblasts, 72 h, mean ± SD
Source text: as §1, §2, §3

In the case of `COc1cc2c(c(OC)c1OC)-c1ccc(OC)c(=O)cc1[C@@H](NC(C)=O)CC2` [Compound 1, Colchicine, reference compound], the IC50 [1] is reported as 17 ± 1.3 nM, the IC50 [2] is reported as 20 ± 4.7 nM and the IC50 [3] is reported as 44 ± 7 nM.
